# Measurements reported in PubChem BioAssay AID686937 (Drosophila RNAi Screening Center, 2013)
# Aim: 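Genes whose loss weakens secretory pathway function in fly cells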 (primary screen)
# System: Drosophila S2 cells expressing secreted horseradish peroxidase
# Reagent: long dsRNA against Drosophila genes
# Timing: about 5.5 days (5 days dsRNA, then 12 h reporter induction)
# Treatment: reporter expression induced after 5 days of dsRNA, read 12 h later; inducer not stated
# Read-out: 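Chemiluminescent measurement of peroxidase in the medium 12 h after reporter induction, following 5 days of dsRNA, given as a z-score per plate; higher means more secretion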
# Direction: z-score: higher = more reporter secreted into medium
# The deposit covers about 23,000 reagents; below is a random part of those that have a named target and a result. 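Reduced-secretion tags in replicate 1 do not always agree with the z-scores; no criterion for assigning the tags was given.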 Names joined by + are all predicted targets of the reagent. Further read-outs or replicates are left out here. Reagent sequences are not shown. Not given: the amount of reagent.
gene,DRSC id,"z-score, replicate 1","z-score, replicate 2"
Tssk (Testis-specific serine/threonine kinase),DRSC14784,0.21,0.33
wdp (windpipe),DRSC04367,0.21,0.17
CG10011,DRSC14174,0.28,0.35
CG15373,DRSC19663,0.3,0.31
CG6005,DRSC15945,-6.21,0.2
CG18171,DRSC08524,0.34,0.14
Df31 (Decondensation factor 31),DRSC03738,0.14,-0.51
Df31 (Decondensation factor 31),DRSC22163,0.04,0.5
asRNA:CR43469 + Balat,DRSC06852,0.24,0.31
Mco4 (Multicopper oxidase 4),DRSC20061,0.05,0.14
CG34049,DRSC00104,-0.41,0.27
AgmNAT (Agmatine N-acetyltransferase),DRSC18072,0.19,0.59
Reepl1 (Receptor accessory protein like 1),DRSC19418,0.41,0.74
CG42750,DRSC02458,0.38,0.52
CG42750,DRSC03019,0.56,0.14
CG42750,DRSC03024,0.47,0.27
CG42750,DRSC21414,0.07,-0.57
Prosalpha4 (Proteasome alpha4 subunit),DRSC20271,0.21,-0.36
nanos,DRSC17018,0.31,0.34
CG34428,DRSC10119,0.24,0.38
CG18178,DRSC10302,0.34,-0.02
CG14391,DRSC14850,0.2,0.32
SmD1 (Small ribonucleoprotein particle protein SmD1),DRSC09800,-3.09,-2.11
CG2260,DRSC18223,-0.02,0.18
CG31921,DRSC00013,0.62,0.35
CG12674,DRSC00348,0.18,-0.01
Akh (Adipokinetic hormone),DRSC08138,0.03,0.17
MRG15 (MORF-related gene 15),DRSC16731,0.64,0.59
Iml1 (Increased minichromosome loss 1),DRSC08249,0.33,0.05
RhoGAP68F (Rho GTPase activating protein at 68F),DRSC10717,0.38,0.5
CG13760,DRSC18617,0.42,0.42
CG15160,DRSC02461,0.5,0.54
edl (ETS-domain lacking),DRSC06516,0.1,0.26
CG5541,DRSC19946,0.16,0.32
CG13590,DRSC04226,0.11,0.2
nito (spenito),DRSC05943,0.56,0.38
CG30471,DRSC07096,0.42,0.31
UQCR-Q (Ubiquinol-cytochrome c reductase ubiquinone-binding protein),DRSC10886,-1.57,-0.34
flw (flapwing),DRSC17992,0.07,-0.26
flw (flapwing),DRSC18774,0.41,-0.95
CG4592,DRSC02761,-0.15,0.23
CG15283,DRSC01980,-0.11,0.19
Polr3E (RNA polymerase III subunit E),DRSC11880,0.01,-2.86
c12.2,DRSC18751,0.47,0.47
pelo (pelota),DRSC03588,0.06,0.28
CG13937,DRSC08406,0.73,0.59
CG42258,DRSC19741,-0.11,-0.39
CG42258,DRSC19783,-0.49,-0.38
CG6766,DRSC02991,0.24,0.55
Cpr57A + Obp57d,DRSC06708,0.16,0.04
Cpr57A + Obp57d,DRSC22719,-1.05,-0.41
Ptr (Patched-related),DRSC04852,0.18,0.41
Ptr (Patched-related),DRSC21517,0.42,-0.47
CG14618,DRSC20631,0.08,0.03
GCS2alpha (Glucosidase 2 alpha subunit),DRSC21036,-1.69,-1.33
CG31917 + Tfb5,DRSC02362,0.52,0.18
CG31917 + Tfb5,DRSC02363,0.08,0.55
